# Experimental data from the supplement of paper PMC12024529.
# Structures can show the parent of a compound that is named as a salt. This is one part of the list. Plates or batches differ in their baseline, so values are only roughly comparable.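 The cells are HEK293 lines stably expressing B-domain-deleted factor VIII fused to Gaussia luciferase, either wild type or a misfolding-prone missense mutant. Each score is mean luminescence from triplicate wells minus the DMSO mean, divided by the DMSO standard deviation; a score of 2 or more counts as a hit, and low scores may reflect lower secretion or poorer cell viability.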
# Tests used:
# HEK293 WT BDD-FVIII-Gluc = assay: secreted FVIII-Gluc luciferase Z-score vs DMSO control; higher = more FVIII-Gluc secretion; details: 5 µM; 24 h
# [1] = test system: HEK293 p.N1941S BDD-FVIII-Gluc; assay: as above; details: 5 µM; 24 h
SMILES,secreted FVIII-Gluc luciferase Z-score (HEK293 WT BDD-FVIII-Gluc),secreted FVIII-Gluc luciferase Z-score [1]
COc1ccccc1N1CCN(CC(O)COc2cccc3ccccc23)CC1 (stereo not drawn) [Naftopidil (Flivas)],inactive: -0.898,inactive: 1.01
CNCCCC12CCC(c3ccccc31)c1ccccc12 [Maprotiline hydrochloride],inactive: 0.0608,inactive: -6.33
Nc1nc(F)nc2c1ncn2[C@@H]1O[C@H](COP(=O)(O)O)[C@@H](O)[C@@H]1O [Fludarabine Phosphate (Fludara)],inactive: 0.648,inactive: 0.498
NCCCCCC(=O)O [Aminocaproic acid (Amicar)],inactive: -1.96,inactive: 0.0498
CCCN(CCC)S(=O)(=O)c1ccc(C(=O)O)cc1 [Probenecid (Benemid)],inactive: -0.0821,inactive: -1.9
CC(C)c1c(C(=O)Nc2ccccc2)c(-c2ccccc2)c(-c2ccc(F)cc2)n1CC[C@@H](O)C[C@@H](O)CC(=O)O [Atorvastatin calcium (Lipitor)],inactive: -0.633,inactive: -2.12
CCCN[C@H]1CCc2nc(N)sc2C1 [Pramipexole dihydrochloride monohydrate],inactive: -0.836,inactive: -2.01
COC1C(O)CC(=O)OC(C)CC=CC=CC(OC2CCC(N(C)C)C(C)O2)C(C)CC(CC=O)C1OC1OC(C)C(OC2CC(C)(O)C(O)C(C)O2)C(N(C)C)C1O (stereo not drawn) [Spiramycin],inactive: -1.94,inactive: -0.874
C=C1/C(=C\C=C2/CCC[C@]3(C)[C@@H]([C@H](C)CCCC(C)(C)O)CC[C@@H]23)C[C@@H](O)C[C@@H]1O [Calcitriol (Rocaltrol)],inactive: -3.52,inactive: 0.39
